Results deposited as PubChem BioAssay AID504804 (Drosophila RNAi Screening Center, 2011)

Purpose: 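Knock-downs shielding fly cells from apoptosis caused by DNA damage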 (primary screen)
Cell system: Drosophila Kc cells
Knock-down reagent: long dsRNA against Drosophila genes, 0.5 µg dsRNA per well
Timing: 96 h (48 h knock-down, then 48 h drug)
Treatment: doxorubicin 5 µg/ml for 48 h, added 48 h after dsRNA
Measured: 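Luminescent ATP counts per replicate, not normalised, reflecting viable cells after 48 h dsRNA knock-down followed by 48 h of 5 µg/ml doxorubicin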
Direction: raw ATP luminescence: higher = more viable cells, protection from doxorubicin
Call rule: 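Active when both duplicate wells lie at least 2 SD above the plate mean and protection is confirmed by rescreening and independent dsRNAs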
In all, the deposit lists about 19,000 reagents; below is an unselected part of those that have a named target and a result. In the full data, 47 (0.25%) are marked active. 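Signals are raw, not normalised; exact z-scores behind calls not deposited; actives needed confirmation, so some wells reaching 2 SD are inactive.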 The numbers tell different reagents against one gene apart.

The opening 3 entries, ahead of the listing:
gene	reagent no.	raw ATP luminescence, replicate 1	raw ATP luminescence, replicate 2	activity call
fzr2 (GeneID 37808)	1	64463	62150	inactive
AspRS (GeneID 36420)	1	68853	67487	inactive
CheA87a (GeneID 41642)	1	80070	75120	inactive

Main list, from the first entry:
gene	reagent no.	raw ATP luminescence, replicate 1	raw ATP luminescence, replicate 2	activity call
fzr2 (GeneID 37808)	1	64463	62150	inactive
AspRS (GeneID 36420)	1	68853	67487	inactive
CheA87a (GeneID 41642)	1	80070	75120	inactive
Ppn (GeneID 43872)	1	57030	44950	inactive
CG9395 (GeneID 34742)	1	60847	64187	inactive
Lcp1Psi (GeneID 3772468)	1	89720	90583	inactive
CG5274 (GeneID 40257)	1	25580	27480	inactive
CG10163 (GeneID 38728)	1	1.08e5	99550	inactive
chinmo (GeneID 33343)	1	81677	62023	inactive
TpnC73F (GeneID 39916)	1	45507	33443	inactive
CG8012 (GeneID 50305)	1	43350	68247	inactive
CG30375 (GeneID 246575)	1	56917	88683	inactive
CG15429 (GeneID 33637)	1	20083	21213	inactive
Pi4KIIalpha (GeneID 40670)	1	50270	23480	inactive
Pi4KIIalpha (GeneID 40670)	2	64733	54587	inactive
CG10208 (GeneID 42814)	1	57700	70840	inactive
CG7298 (GeneID 40210)	1	44287	20490	inactive
mTor (GeneID 47396)	1	96547	63280	inactive
Acn (GeneID 35173)	1	73440	57020	inactive
CG13367 (GeneID 31013)	1	50700	54310	inactive
CG13367 (GeneID 31013)	2	43080	49250	inactive
br (GeneID 44505)	1	2.80e5	2.31e5	inactive
br (GeneID 44505)	2	50660	70860	inactive
br (GeneID 44505)	3	13670	18040	inactive
br (GeneID 44505)	4	21850	24500	inactive
bond (GeneID 42657)	1	50677	53513	inactive
Mip (GeneID 39933)	1	27093	24327	inactive
lncRNA:CR40629 (GeneID 10178881)	1	2.49e5	2.52e5	inactive
CG30383 (GeneID 246583)	1	77380	73407	inactive
laza (GeneID 40468)	1	31523	23153	inactive
Ask1 (GeneID 42366)	1	49010	75700	inactive
CG5892 (GeneID 42522)	1	14530	28940	inactive
U2A (GeneID 35713)	1	43677	73883	inactive
CG7432 (GeneID 42347)	1	48950	53420	inactive
CG3987 (GeneID 41822)	1	49447	30223	inactive
CG12498 (GeneID 31272)	1	45620	46990	inactive
CHES-1-like (GeneID 31678)	1	56310	69060	inactive
vari (GeneID 35343)	1	67797	60687	inactive
CG9135 (GeneID 33850)	1	1.20e5	66480	inactive
spn-E (GeneID 41919)	1	66990	59430	inactive
Su(fu) (GeneID 41565)	1	70470	43900	inactive
CG11668 (GeneID 41606)	1	54540	65730	inactive
CG34033 (GeneID 3885602)	1	77567	66017	inactive
comm3 (GeneID 39696)	1	55683	54003	inactive
comm3 (GeneID 39696)	2	41843	40273	inactive
comm3 (GeneID 39696)	3	40760	41653	inactive
CG32512 (GeneID 33085)	1	3.30e5	3.37e5	inactive
CG32512 (GeneID 33085)	2	2.65e5	2.50e5	inactive
CG34251 (GeneID 5740860)	1	80863	70937	inactive
CG34251 (GeneID 5740860)	2	75590	75597	inactive
sqz (GeneID 42300)	1	76440	70890	inactive
TbCMF46 (GeneID 34318)	1	42847	56573	inactive
org-1 (GeneID 31778)	1	9580	10300	inactive
l(3)07882 (GeneID 46201)	1	51547	58457	inactive
Odc2 (GeneID 35767)	1	40587	77200	inactive
lncRNA:sphinx (GeneID 4379815)	1	45100	57390	inactive
noi (GeneID 40678)	1	27710	23643	inactive
Brca2 (GeneID 37916)	1	52977	53237	inactive
Brca2 (GeneID 37916)	2	53033	58147	inactive
kek1 (GeneID 34688)	1	69510	62600	inactive
CG10165 (GeneID 35242)	1	90483	47670	inactive
CG11865 (GeneID 34917)	1	56173	73060	inactive
CG14362 (GeneID 41695)	1	98890	78910	inactive
flw (GeneID 44289)	1	2.89e5	2.59e5	inactive
flw (GeneID 44289)	2	2.41e5	2.22e5	inactive
CG34006 (retired record) (GeneID 3885652)	1	2.83e5	2.57e5	inactive
Jhbp5 (GeneID 41949)	1	65750	79060	inactive
CG5665 (GeneID 40243)	1	76080	68977	inactive
ChT (GeneID 42245)	1	47127	50817	inactive
CG9702 (GeneID 43634)	1	52790	50610	inactive
Sirup (GeneID 34089)	1	57503	77553	inactive
CG14301 (GeneID 42235)	1	72880	47520	inactive
Nup153 (GeneID 32630)	1	1.34e5	1.03e5	inactive
CG6753 (GeneID 41557)	1	58553	61580	inactive
btv (GeneID 35073)	1	2.22e5	1.78e5	inactive
btv (GeneID 35073)	2	73937	71093	inactive
CG9902 (GeneID 32622)	1	2.93e5	2.30e5	inactive
CG9328 (GeneID 35344)	1	31500	38283	inactive
CG7080 (GeneID 42609)	1	46637	33100	inactive
mRpL42 (GeneID 36050)	1	35703	79377	inactive
Rbcn-3B (GeneID 31155)	1	60650	53900	inactive
Pkcdelta (GeneID 32191)	1	3.36e5	2.74e5	inactive
Pkcdelta (GeneID 32191)	2	3.26e5	3.10e5	inactive
nanos (GeneID 42297)	1	46700	50370	inactive
